# From publication PMC7215681
# Amino acid sequences for entries named in this document (tags omitted). A change or cut given only in a name is not applied to a line headed by its entry.
# UniProt P22199: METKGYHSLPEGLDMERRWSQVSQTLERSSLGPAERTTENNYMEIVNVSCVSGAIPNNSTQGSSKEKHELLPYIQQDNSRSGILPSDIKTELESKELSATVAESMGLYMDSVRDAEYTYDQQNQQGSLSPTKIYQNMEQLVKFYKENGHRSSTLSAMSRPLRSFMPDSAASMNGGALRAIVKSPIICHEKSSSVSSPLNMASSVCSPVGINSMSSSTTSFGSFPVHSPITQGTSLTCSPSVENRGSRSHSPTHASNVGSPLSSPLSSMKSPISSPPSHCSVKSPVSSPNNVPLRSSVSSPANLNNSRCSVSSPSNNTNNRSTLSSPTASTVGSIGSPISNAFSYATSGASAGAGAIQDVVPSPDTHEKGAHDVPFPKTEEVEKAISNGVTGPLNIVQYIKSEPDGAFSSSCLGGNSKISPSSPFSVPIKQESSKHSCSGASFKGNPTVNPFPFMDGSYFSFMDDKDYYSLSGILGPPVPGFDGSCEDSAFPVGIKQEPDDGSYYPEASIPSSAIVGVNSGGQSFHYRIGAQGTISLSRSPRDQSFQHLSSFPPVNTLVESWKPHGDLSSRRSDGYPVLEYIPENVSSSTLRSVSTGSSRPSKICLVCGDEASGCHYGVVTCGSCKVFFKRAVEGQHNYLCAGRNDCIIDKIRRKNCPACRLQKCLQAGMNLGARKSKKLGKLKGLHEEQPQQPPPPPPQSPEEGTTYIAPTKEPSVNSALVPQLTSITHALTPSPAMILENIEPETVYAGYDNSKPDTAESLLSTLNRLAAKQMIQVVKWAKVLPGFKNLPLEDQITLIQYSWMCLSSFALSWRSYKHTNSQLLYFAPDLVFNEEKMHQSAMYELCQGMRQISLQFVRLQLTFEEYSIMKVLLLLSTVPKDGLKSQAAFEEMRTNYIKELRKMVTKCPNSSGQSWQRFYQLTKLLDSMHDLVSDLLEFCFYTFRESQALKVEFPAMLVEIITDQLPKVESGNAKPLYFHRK
# UniProt P34947: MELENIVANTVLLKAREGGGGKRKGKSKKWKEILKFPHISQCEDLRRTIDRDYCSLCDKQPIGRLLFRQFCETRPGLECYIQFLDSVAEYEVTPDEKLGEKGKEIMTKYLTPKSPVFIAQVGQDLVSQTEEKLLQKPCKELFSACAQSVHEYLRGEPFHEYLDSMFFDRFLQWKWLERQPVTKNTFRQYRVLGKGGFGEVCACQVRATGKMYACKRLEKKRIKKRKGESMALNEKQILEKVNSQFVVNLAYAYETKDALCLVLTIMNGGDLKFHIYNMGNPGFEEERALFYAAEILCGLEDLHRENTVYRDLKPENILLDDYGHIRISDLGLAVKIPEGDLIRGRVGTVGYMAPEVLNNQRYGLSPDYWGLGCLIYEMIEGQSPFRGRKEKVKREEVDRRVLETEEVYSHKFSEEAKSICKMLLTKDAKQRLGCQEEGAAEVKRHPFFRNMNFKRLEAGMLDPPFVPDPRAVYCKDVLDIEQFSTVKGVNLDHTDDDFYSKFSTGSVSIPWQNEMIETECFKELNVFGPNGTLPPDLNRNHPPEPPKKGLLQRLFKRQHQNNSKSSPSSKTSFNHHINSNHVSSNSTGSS
# Target: mineralocorticoid receptor (rat (endogenous in H9c2)) (UniProt P22199)
# Assay: co-IP; H9c2 cells overexpressing ΔNES-GRK5, whole cell lysates; no figure cited
substance,measurement,value
dominant negative GRK5 mutant lacking a nuclear export sequence (ΔNES-GRK5) (from UniProt P34947) (enzyme),binding,no binding

# These are yes or no findings as the source states them, for the method shown. In cells and extracts the contact can be indirect.
